{"source": "patent US20130096092A1", "about": "“THIOETHER PRODRUG COMPOSITIONS AS ANTI-HIV AND ANTI-RETROVIRAL AGENTS” (Health and Human Services, priority 2010, published 2013)", "target": "T1, NCp7 (Human immunodeficiency virus type 1 group M subtype B, UniProt P04591)", "T1 construct": "NCp7 is encoded in the viral genome as part of the Gag polyprotein, which is specifically cleaved by the viral protease; endogenous in cells; host or cells: H9 cells chronically infected with HIV-1", "experiment": "NCp7 aggregation in H9 cells chronically infected with HIV-1", "assay_type": "cell-based", "conditions": "FIG. 3, versus control without compound", "note": "Some results were stated once for a whole list of compounds, not compound by compound.", "data": [{"smiles": "CC(=O)Sc1ccccc1C(=O)NCCC(N)=O", "note": "[Compound 8]", "values": [{"measurement": "ratio of NCp7 in non-reducing versus reducing conditions", "value": "decrease"}]}]}
